Results taken from publication PMC2228184 (British Journal of Cancer, 1997).

Tested on: patients with advanced solid tumours
Details: % decrease in ANC vs AUC, course 1, Figure 2
Excerpt: Topoisomerases are essential nuclear enzymes that alter the topology of DNA during DNA metabolism by cleavage of DNA strands, strand passage and religation (Wang, 1985). Two major topoisomerases, types I and H, have been identified in all mammalian cells, and induce single- and double-strand breaks respectively. […] They have different sites of binding DNA and play a different role in the cell cycle. Received 15 November 1996 Revised 19 February 1997 Accepted 10April 1997 Correspondence to: VMM Herben, Slotervaart Hospital, Department of Pharmacy and Pharmacology, Louwesweg 6, 1066 EC Amsterdam, The Netherlands Topotecan (Hycamtin), a semisynthetic water-soluble derivative of camptothecin, was the first topoisomerase I-targeting drug to undergo clinical testing since the discontinuation of the clinical development of sodium camptothecin in the early 1970s. […] In view of topotecan's unique mechanism of action and important anti-tumour effects as single agent, recent studies have focused on combination therapies with other effective anti- cancer agents. The combination of topoisomerase I inhibitors with topoiso- merase II poisons is in theory an attractive strategy. […]

## CC[C@@]1(O)C(=O)OCc2c1cc1n(c2=O)Cc2cc3c(CN(C)C)c(O)ccc3nc2-1 [topotecan]
  Hill coefficient γ: 2.1
